Measurements published in patent publication US20230340132A1, “ANTI-ADENOSINE RECEPTOR (A2aR) ANTIBODIES” (NA Biotech Corp, priority 2020, published 2023).
No constants are given. Whether binding was seen depends on the method and setting. Some entries that bind do so weakly or less than the wild type. Where a sequence is shown, tags or fusion partners need not be part of it.

Key:
[1] = target: T1, human adenosine A2A receptor (A2aR) (human, UniProt P29274 1-412); experiment: flow cytometry on human PBMC (legend of FIG. 6)
[2] = target: T1, human adenosine A2A receptor (A2aR); experiment: flow cytometry on human PBMC; antibody 2 ug/ml; rabbit Fc format
[3] = target: cynomolgus adenosine A2A receptor (A2aR) (cynomolgus); experiment: flow cytometry on cynomolgus PBMC; antibody 2 ug/ml; rabbit Fc format
[4] = target: cynomolgus adenosine A2A receptor (A2aR) (cynomolgus); experiment: flow cytometry on cynomolgus PBMC (legend of FIG. 6)

Measured: binding

B1: anti-human A2aR clone 3F6-9G5 at rabbit Fc format (antibody, V domains shown)
VH: QVQLQQPGTELVKPGAPVRLSCKASGFAFTSYWMNWVRQRPGRGLEWIGRIDPSDSEAHYHHKFWGKATLTVDKSSSTVYIQLNGLTSEDSAVYYCLRSLYGKGDYWGHGTTLTVSS
VL: DVLMTQTPLSLSVRLGDQASISCRSSQSLVHRNGNTYLEWYLQRPGQSPKLLIYKVSNRFSGVPDRFSGSGSGTDFTLKISRVEAEDLGVYYCYQGSHVPLTFGSGTKLEIK
binds: [1] | [2] | [3] | [4]
